The values below come from publication PMC10939015.

This assay concerns the target PCNA (human (endogenous in HeLa Kyoto)), P12004. Nature of the assay: proximity ligation; Duolink in situ PLA (anti-rabbit PLUS and anti-mouse MINUS probes) on fixed HeLa Kyoto cells, S-phase cells; control, or 10 mM HU for 1 h, or 150 µM APH for 30 min before fixation. Particulars: remark: other sources report otherwise.

These are yes or no findings as the source states them, for the method shown. In cells and extracts the contact can be indirect. Some results given as binding are weak or reduced against the parent protein; the word gives no strength.

B1: Timeless, Q9UNS1 1-1208 (protein)
chain: MDLHMMNCELLATCSALGYLEGDTYHKEPDCLESVKDLIRYLRHEDETRDVRQQLGAAQILQSDLLPILTQHHQDKPLFDAVIRLMVNLTQPALLCFGNLPKEPSFRHHFLQVLTYLQAYKEAFASEKAFGVLSETLYELLQLGWEERQEEDNLLIERILLLVRNILHVPADLDQEKKIDDDASAHDQLLWAIHLSGLDDLLLFLASSSAEEQWSLHVLEIVSLMFRDQNPEQLAGVGQGRLAQERSADFAELEVLRQREMAEKKTRALQRGNRHSRFGGSYIVQGLKSIGERDLIFHKGLHNLRNYSSDLGKQPKKVPKRRQAARELSIQRRSALNVRLFLRDFCSEFLENCYNRLMGSVKDHLLREKAQQHDETYYMWALAFFMAFNRAASFRPGLVSETLSVRTFHFIEQNLTNYYEMMLTDRKEAASWARRMHLALKAYQELLATVNEMDISPDEAVRESSRIIKNNIFYVMEYRELFLALFRKFDERCQPRSFLRDLVETTHLFLKMLERFCRSRGNLVVQNKQKKRRKKKKKVLDQAIVSGNVPSSPEEVEAVWPALAEQLQCCAQNSELSMDSVVPFDAASEVPVEEQRAEAMVRIQDCLLAGQAPQALTLLRSAREVWPEGDVFGSQDISPEEEIQLLKQILSAPLPRQQGPEERGAEEEEEEEEEEEEELQVVQVSEKEFNFLDYLKRFACSTVVRAYVLLLRSYQQNSAHTNHCIVKMLHRLAHDLKMEALLFQLSVFCLFNRLLSDPAAGAYKELVTFAKYILGKFFALAAVNQKAFVELLFWKNTAVVREMTEGYGSLDDRSSSRRAPTWSPEEEAHLRELYLANKDVEGQDVVEAILAHLNTVPRTRKQIIHHLVQMGLADSVKDFQRKGTHIVLWTGDQELELQRLFEEFRDSDDVLGHIMKNITAKRSRARIVDKLLALGLVAERRELYKKRQKKLASSILPNGAESLKDFCQEDLEEEENLPEEDSEEEEEGGSEAEQVQGSLVLSNENLGQSLHQEGFSIPLLWLQNCLIRAADDREEDGCSQAVPLVPLTEENEEAMENEQFQQLLRKLGVRPPASGQETFWRIPAKLSPTQLRRAAASLSQPEEEQKLQPELQPKVPGEQGSDEEHCKEHRAQALRALLLAHKKKAGLASPEEEDAVGKEPLKAAPKKRQLLDSDEEQEEDEGRNRAPELGAPGIQKKKRYQIEDDEDD
Consider B1, for which the binding entry is on record as “binds”.
